Structures can show the parent of a compound that is named as a salt. The list shows a part of the results. Hit calls seldom repeat between salt and free forms of one compound.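 In K562 cells expressing nanoluciferase-fused kinases, luminescence was recorded at 4 h intervals between 2 and 18 h, normalized as percent of control with DMSO at 100% and a positive control at 0%. A significant (2 sigma) signal drop marks a time point as decreased. The authors' rule for a hit is not shown and takes in more than the number of time points.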
These compounds were tested against RIOK1 (UniProt Q9BRS2) (assay: kinase-Nluc reporter destabilization hit call (1 = scored as downregulated) (binary); higher = compound decreases kinase abundance). Settings: 10 µM; K562; 2-18 h.

Sequences of proteins named here, by UniProt entry; tags and fusion partners are left off. A change or cut given only in a name is not applied to a line headed by its entry.
UniProt Q9BRS2: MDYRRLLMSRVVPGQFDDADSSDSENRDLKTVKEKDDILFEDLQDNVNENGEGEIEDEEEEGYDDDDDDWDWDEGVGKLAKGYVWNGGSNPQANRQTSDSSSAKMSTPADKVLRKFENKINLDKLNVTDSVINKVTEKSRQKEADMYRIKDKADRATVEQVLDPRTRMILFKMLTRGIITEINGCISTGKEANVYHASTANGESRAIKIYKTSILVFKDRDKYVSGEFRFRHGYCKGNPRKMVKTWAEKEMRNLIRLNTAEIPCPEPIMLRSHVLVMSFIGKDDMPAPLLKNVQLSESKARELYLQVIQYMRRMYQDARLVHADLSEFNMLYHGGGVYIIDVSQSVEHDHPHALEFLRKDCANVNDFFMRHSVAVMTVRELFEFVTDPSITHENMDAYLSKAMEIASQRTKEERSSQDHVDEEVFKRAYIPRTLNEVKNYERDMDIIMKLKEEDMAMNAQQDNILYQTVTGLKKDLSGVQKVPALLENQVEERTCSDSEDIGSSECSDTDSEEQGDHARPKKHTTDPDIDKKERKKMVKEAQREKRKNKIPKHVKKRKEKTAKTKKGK
UniProt Q13546: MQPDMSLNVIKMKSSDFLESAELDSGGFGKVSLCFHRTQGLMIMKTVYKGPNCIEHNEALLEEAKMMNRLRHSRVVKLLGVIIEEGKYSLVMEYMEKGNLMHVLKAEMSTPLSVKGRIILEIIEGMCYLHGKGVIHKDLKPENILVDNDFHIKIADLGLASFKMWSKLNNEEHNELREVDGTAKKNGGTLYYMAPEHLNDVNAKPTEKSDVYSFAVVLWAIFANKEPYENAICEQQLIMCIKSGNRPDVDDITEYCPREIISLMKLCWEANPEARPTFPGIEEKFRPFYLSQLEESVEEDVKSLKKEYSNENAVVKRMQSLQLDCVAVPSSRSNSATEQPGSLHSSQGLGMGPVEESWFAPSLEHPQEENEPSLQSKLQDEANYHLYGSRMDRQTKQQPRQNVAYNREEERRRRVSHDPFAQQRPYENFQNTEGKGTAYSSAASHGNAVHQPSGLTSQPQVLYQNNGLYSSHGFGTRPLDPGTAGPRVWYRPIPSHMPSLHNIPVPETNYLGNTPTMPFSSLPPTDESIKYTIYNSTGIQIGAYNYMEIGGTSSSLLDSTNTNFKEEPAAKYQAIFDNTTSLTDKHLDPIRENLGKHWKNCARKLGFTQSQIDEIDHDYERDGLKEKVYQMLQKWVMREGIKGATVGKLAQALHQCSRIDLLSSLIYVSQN

kinase-Nluc reporter destabilization hit call, inactive:
CNC(=O)c1ccc(Nc2ncc(C(F)(F)F)c(NCc3nccnc3N(C)S(C)(=O)=O)n2)cc1 [Defactinib (hydrochloride)] 0
C#Cc1cccc(Nc2ncnc3cc4c(cc23)OCCOCCOCCO4)c1 [Icotinib (Hydrochloride)] 0
CNC(=O)c1ccc(Nc2ncc(C(F)(F)F)c(NCc3nccnc3N(C)S(C)(=O)=O)n2)cc1 [Defactinib] 0
N#CCNC(=O)c1ccc(-c2ccnc(Nc3ccc(N4CCOCC4)cc3)n2)cc1 [Momelotinib sulfate] 0
N#CCC1(n2cc(-c3ncnc4[nH]ccc34)cn2)CN(C2CCN(C(=O)c3ccnc(C(F)(F)F)c3F)CC2)C1 [Itacitinib] 0
CC(=O)Nc1cccc(-n2c(=O)n(C3CC3)c(=O)c3c(Nc4ccc(I)cc4F)n(C)c(=O)c(C)c32)c1 [Trametinib] 0
C[C@H](CCC(=O)NCCS(=O)(=O)O)[C@H]1CC[C@H]2[C@@H]3[C@@H](O)C[C@@H]4C[C@H](O)CC[C@]4(C)[C@H]3CC[C@]12C [Tauroursodeoxycholate (sodium)] 0
Cc1cccc(/C=N/Nc2cc(N3CCOCC3)nc(OCCc3ccccn3)n2)c1 [Apilimod (mesylate)] 0
N#CCNC(=O)c1ccc(-c2ccnc(Nc3ccc(N4CCOCC4)cc3)n2)cc1 [Momelotinib] 0
C[S+]([O-])c1ccc(-c2nc(-c3ccc(F)cc3)c(-c3ccncc3)[nH]2)cc1 (centres undefined) 0
COc1cc2c(cc1OC)-c1c(C)c3ccc(OC)c(OC)c3c[n+]1CC2 [Dehydrocorydaline (chloride)] 0
CCCC(=O)Nc1ncnc2c1ncn2[C@@H]1O[C@@H]2COP(=O)(O)O[C@H]2[C@H]1OC(=O)CCC [Bucladesine (sodium)] 0
COc1ccnc(C[S+]([O-])c2nc3cc(-n4cccc4)ccc3[nH]2)c1C (centres undefined) [Ilaprazole] 0
COC(=O)[C@H](CC(C)C)NC(=O)c1ccc(NC[C@@H](N)CS)cc1-c1cccc2ccccc12 0
COc1ncc(F)cc1CNc1ccc(Cc2c[nH]c3ncc(C)cc23)c(F)n1 0
C#Cc1cccc(Nc2ncnc3cc(OCCOC)c(OCCO)cc23)c1 [Desmethyl Erlotinib] 0
Cn1ncc(Cl)c1-c1cc(C(=O)N[C@H](CN)Cc2cccc(F)c2)sc1Cl [Afuresertib] 0
O=C(c1ccc(F)c(F)c1Nc1ccc(I)cc1F)N1CC(O)([C@@H]2CCCCN2)C1 [Cobimetinib (hemifumarate)] 0
COc1cc(/C=C/C(=O)O)ccc1O [Ferulic acid (sodium)] 0
CNc1ncc2cc(-c3ccc(-c4cccc(C)n4)cc3Cl)c(=O)n(C[C@H]3OC[C@H](N)CO3)c2n1 0
COC(=O)[C@H](CC(C)C)NC(=O)c1ccc(NC[C@@H](N)CS)cc1-c1cccc2ccccc12 [GGTI298 (Trifluoroacetate)] 0
Nc1cncc(-c2cn3ccnc3c(Nc3ccc(N4CCN(C5COC5)CC4)cc3)n2)n1 [Lanraplenib (succinate)] 0
CN(C)C(=O)c1cc2cnc(Nc3ccc(N4CCNCC4)cn3)nc2n1C1CCCC1 [Ribociclib] 0
CC(C)NC[C@@H](C(=O)N1CCN(c2ncnc3c2[C@H](C)C[C@H]3O)CC1)c1ccc(Cl)cc1 [Ipatasertib] 0
COc1cc(/C=C/C(=O)O)ccc1O [Ferulic acid] 0
CN(C)C/C=C/C(=O)Nc1cc2c(Nc3ccc(F)c(Cl)c3)ncnc2cc1O[C@H]1CCOC1 [Afatinib] 0

3 neighbouring entries out of the list so far, for reference:
kinase-Nluc reporter destabilization hit call, inactive:
C[C@H](CCC(=O)NCCS(=O)(=O)O)[C@H]1CC[C@H]2[C@@H]3[C@@H](O)C[C@@H]4C[C@H](O)CC[C@]4(C)[C@H]3CC[C@]12C [Tauroursodeoxycholate (sodium)] 0
Cc1cccc(/C=N/Nc2cc(N3CCOCC3)nc(OCCc3ccccn3)n2)c1 [Apilimod (mesylate)] 0
N#CCNC(=O)c1ccc(-c2ccnc(Nc3ccc(N4CCOCC4)cc3)n2)cc1 [Momelotinib] 0

These compounds were tested against RIPK1 (UniProt Q13546) in the same assay as above. Settings: 2.5 µM; K562; 2-18 h.

kinase-Nluc reporter destabilization hit call, inactive:
Cc1cccc(-c2[nH]c(CNc3ccccc3F)nc2-c2ccc3ncnn3c2)n1 [Vactosertib] 0
c1cc(-c2cnn3cc(-c4ccc(OCCN5CCCCC5)cc4)cnc23)ccn1 [Dorsomorphin (dihydrochloride)] 0
Oc1cccc(-c2nc(N3CCOCC3)c3oc4ncccc4c3n2)c1 [PI-103 (Hydrochloride)] 0
C=CC(=O)Nc1cc(Nc2nccc(-c3cn(C)c4ccccc34)n2)c(OC)cc1N(C)CCN(C)C [Osimertinib mesylate] 0
CNC(=O)c1cc(Oc2ccc(NC(=O)Nc3ccc(Cl)c(C(F)(F)F)c3)c(F)c2)ccn1 [Regorafenib (monohydrate)] 0
Cc1cccc(-c2[nH]c(CNc3ccccc3F)nc2-c2ccc3ncnn3c2)n1 [Vactosertib (Hydrochloride)] 0
COc1ccc(S(=O)(=O)Nc2ccccc2CN(C)C/C=C/c2ccc(Cl)cc2)cc1 [KN-92 (hydrochloride)] 0
CN(C)C(=O)c1cc2cnc(Nc3ccc(N4CCNCC4)cn3)nc2n1C1CCCC1 [Ribociclib hydrochloride] 0
